Experimental data taken from article PMC10238091.

Target: T1, SA1 (Stromalin Antigen 1, STAG1) (human (endogenous in HCT116 and HeLa)) (UniProt Q8WVM7)
T1 sequence: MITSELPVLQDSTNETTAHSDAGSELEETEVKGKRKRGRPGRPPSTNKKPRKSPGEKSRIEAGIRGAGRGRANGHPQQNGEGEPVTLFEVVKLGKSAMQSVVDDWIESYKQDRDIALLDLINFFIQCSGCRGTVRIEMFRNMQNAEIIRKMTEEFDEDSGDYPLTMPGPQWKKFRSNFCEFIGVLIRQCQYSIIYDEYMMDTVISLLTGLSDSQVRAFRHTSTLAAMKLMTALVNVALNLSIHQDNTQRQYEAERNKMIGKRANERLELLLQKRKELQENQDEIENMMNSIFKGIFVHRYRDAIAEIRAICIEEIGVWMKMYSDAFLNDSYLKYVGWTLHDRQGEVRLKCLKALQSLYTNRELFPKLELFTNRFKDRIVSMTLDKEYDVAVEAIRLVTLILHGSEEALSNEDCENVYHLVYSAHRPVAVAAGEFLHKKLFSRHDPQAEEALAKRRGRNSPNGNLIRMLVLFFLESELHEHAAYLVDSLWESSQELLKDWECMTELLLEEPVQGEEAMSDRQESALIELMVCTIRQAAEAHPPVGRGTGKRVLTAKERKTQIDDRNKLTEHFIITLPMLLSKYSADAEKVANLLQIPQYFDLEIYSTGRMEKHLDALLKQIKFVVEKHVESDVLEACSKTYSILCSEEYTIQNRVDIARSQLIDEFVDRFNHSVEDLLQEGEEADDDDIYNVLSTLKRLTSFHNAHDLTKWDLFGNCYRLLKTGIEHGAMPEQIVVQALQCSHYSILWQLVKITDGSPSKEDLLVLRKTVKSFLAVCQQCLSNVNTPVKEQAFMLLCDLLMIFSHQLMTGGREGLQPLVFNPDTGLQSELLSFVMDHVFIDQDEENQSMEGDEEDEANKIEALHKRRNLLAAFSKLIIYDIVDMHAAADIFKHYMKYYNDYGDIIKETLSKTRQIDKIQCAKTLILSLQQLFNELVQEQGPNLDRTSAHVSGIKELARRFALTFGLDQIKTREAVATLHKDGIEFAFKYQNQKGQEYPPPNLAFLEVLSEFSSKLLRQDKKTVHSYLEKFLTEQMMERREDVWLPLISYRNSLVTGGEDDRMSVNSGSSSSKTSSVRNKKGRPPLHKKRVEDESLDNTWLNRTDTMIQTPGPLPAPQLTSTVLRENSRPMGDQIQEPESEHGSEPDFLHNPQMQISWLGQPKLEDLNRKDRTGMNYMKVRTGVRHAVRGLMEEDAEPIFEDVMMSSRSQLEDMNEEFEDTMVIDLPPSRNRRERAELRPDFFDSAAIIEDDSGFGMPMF
Assay: affinity purification with mass spectrometry; endogenous SA1 IP (15 μg antibody, 2 mg chromatin extract) from RAD21mAC cells untreated or IAA 4 h, with IgG and siSA1 controls; LC-MS/MS, three biological replicates

binding: binds
B1: DHX29 (protein, UniProt Q7Z478 1-1369)
chain: MGGKNKKHKAPAAAVVRAAVSASRAKSAEAGIAGEAQSKKPVSRPATAAAAAAGSREPRVKQGPKIYSFNSTNDSSGPANLDKSILKVVINNKLEQRIIGVINEHKKQNNDKGMISGRLTAKKLQDLYMALQAFSFKTKDIEDAMTNTLLYGGDLHSALDWLCLNLSDDALPEGFSQEFEEQQPKSRPKFQSPQIQATISPPLQPKTKTYEEDPKSKPKKEEKNMEVNMKEWILRYAEQQNEEEKNENSKSLEEEEKFDPNERYLHLAAKLLDAKEQAATFKLEKNKQGQKEAQEKIRKFQREMETLEDHPVFNPAMKISHQQNERKKPPVATEGESALNFNLFEKSAAATEEEKDKKKEPHDVRNFDYTARSWTGKSPKQFLIDWVRKNLPKSPNPSFEKVPVGRYWKCRVRVIKSEDDVLVVCPTILTEDGMQAQHLGATLALYRLVKGQSVHQLLPPTYRDVWLEWSDAEKKREELNKMETNKPRDLFIAKLLNKLKQQQQQQQQHSENKRENSEDPEESWENLVSDEDFSALSLESANVEDLEPVRNLFRKLQSTPKYQKLLKERQQLPVFKHRDSIVETLKRHRVVVVAGETGSGKSTQVPHFLLEDLLLNEWEASKCNIVCTQPRRISAVSLANRVCDELGCENGPGGRNSLCGYQIRMESRACESTRLLYCTTGVLLRKLQEDGLLSNVSHVIVDEVHERSVQSDFLLIILKEILQKRSDLHLILMSATVDSEKFSTYFTHCPILRISGRSYPVEVFHLEDIIEETGFVLEKDSEYCQKFLEEEEEVTINVTSKAGGIKKYQEYIPVQTGAHADLNPFYQKYSSRTQHAILYMNPHKINLDLILELLAYLDKSPQFRNIEGAVLIFLPGLAHIQQLYDLLSNDRRFYSERYKVIALHSILSTQDQAAAFTLPPPGVRKIVLATNIAETGITIPDVVFVIDTGRTKENKYHESSQMSSLVETFVSKASALQRQGRAGRVRDGFCFRMYTRERFEGFMDYSVPEILRVPLEELCLHIMKCNLGSPEDFLSKALDPPQLQVISNAMNLLRKIGACELNEPKLTPLGQHLAALPVNVKIGKMLIFGAIFGCLDPVATLAAVMTEKSPFTTPIGRKDEADLAKSALAMADSDHLTIYNAYLGWKKARQEGGYRSEITYCRRNFLNRTSLLTLEDVKQELIKLVKAAGFSSSTTSTSWEGNRASQTLSFQEIALLKAVLVAGLYDNVGKIIYTKSVDVTEKLACIVETAQGKAQVHPSSVNRDLQTHGWLLYQEKIRYARVYLRETTLITPFPVLLFGGDIEVQHRERLLSIDGWIYFQAPVKIAVIFKQLRVLIDSVLRKKLENPKMSLENDKILQIITELIKTENN

binding: binds
B2: FTSJ3 (protein, UniProt Q8IY81 1-847)
chain: MGKKGKVGKSRRDKFYHLAKETGYRSRSAFKLIQLNRRFQFLQKARALLDLCAAPGGWLQVAAKFMPVSSLIVGVDLVPIKPLPNVVTLQQDITTERCRQALRKELKTWKVDVVLNDGAPNVGASWVHDAYSQAHLTLMALRLACDFLARGGSFITKVFRSRDYQPLLWIFQQLFRRVQATKPQASRHESAEIFVVCQGFLAPDKVDSKFFDPKFAFKEVEVQAKTVTELVTKKKPKAEGYAEGDLTLYHRTSVTDFLRAANPVDFLSKASEIMVDDEELAQHPATTEDIRVCCQDIRVLGRKELRSLLNWRTKLRRYVAKKLKEQAKALDISLSSGEEDEGDEEDSTAGTTKQPSKEEEEEEEEEQLNQTLAEMKAQEVAELKRKKKKLLREQRKQRERVELKMDLPGVSIADEGETGMFSLSTIRGHQLLEEVTQGDMSAADTFLSDLPRDDIYVSDVEDDGDDTSLDSDLDPEELAGVRGHQGLRDQKRMRLTEVQDDKEEEEEENPLLVPLEEKAVLQEEQANLWFSKGSFAGIEDDADEALEISQAQLLFENRRKGRQQQQKQQLPQTPPSCLKTEIMSPLYQDEAPKGTEASSGTEAATGLEGEEKDGISDSDSSTSSEEEESWEPLRGKKRSRGPKSDDDGFEIVPIEDPAKHRILDPEGLALGAVIASSKKAKRDLIDNSFNRYTFNEDEGELPEWFVQEEKQHRIRQLPVGKKEVEHYRKRWREINARPIKKVAEAKARKKRRMLKRLEQTRKKAEAVVNTVDISEREKVAQLRSLYKKAGLGKEKRHVTYVVAKKGVGRKVRRPAGVRGHFKVVDSRMKKDQRAQQRKEQKKKHKRK

binding: binds
B3: ADAR1 (protein, UniProt P55265 1-1226)
chain: MNPRQGYSLSGYYTHPFQGYEHRQLRYQQPGPGSSPSSFLLKQIEFLKGQLPEAPVIGKQTPSLPPSLPGLRPRFPVLLASSTRGRQVDIRGVPRGVHLRSQGLQRGFQHPSPRGRSLPQRGVDCLSSHFQELSIYQDQEQRILKFLEELGEGKATTAHDLSGKLGTPKKEINRVLYSLAKKGKLQKEAGTPPLWKIAVSTQAWNQHSGVVRPDGHSQGAPNSDPSLEPEDRNSTSVSEDLLEPFIAVSAQAWNQHSGVVRPDSHSQGSPNSDPGLEPEDSNSTSALEDPLEFLDMAEIKEKICDYLFNVSDSSALNLAKNIGLTKARDINAVLIDMERQGDVYRQGTTPPIWHLTDKKRERMQIKRNTNSVPETAPAAIPETKRNAEFLTCNIPTSNASNNMVTTEKVENGQEPVIKLENRQEARPEPARLKPPVHYNGPSKAGYVDFENGQWATDDIPDDLNSIRAAPGEFRAIMEMPSFYSHGLPRCSPYKKLTECQLKNPISGLLEYAQFASQTCEFNMIEQSGPPHEPRFKFQVVINGREFPPAEAGSKKVAKQDAAMKAMTILLEEAKAKDSGKSEESSHYSTEKESEKTAESQTPTPSATSFFSGKSPVTTLLECMHKLGNSCEFRLLSKEGPAHEPKFQYCVAVGAQTFPSVSAPSKKVAKQMAAEEAMKALHGEATNSMASDNQPEGMISESLDNLESMMPNKVRKIGELVRYLNTNPVGGLLEYARSHGFAAEFKLVDQSGPPHEPKFVYQAKVGGRWFPAVCAHSKKQGKQEAADAALRVLIGENEKAERMGFTEVTPVTGASLRRTMLLLSRSPEAQPKTLPLTGSTFHDQIAMLSHRCFNTLTNSFQPSLLGRKILAAIIMKKDSEDMGVVVSLGTGNRCVKGDSLSLKGETVNDCHAEIISRRGFIRFLYSELMKYNSQTAKDSIFEPAKGGEKLQIKKTVSFHLYISTAPCGDGALFDKSCSDRAMESTESRHYPVFENPKQGKLRTKVENGEGTIPVESSDIVPTWDGIRLGERLRTMSCSDKILRWNVLGLQGALLTHFLQPIYLKSVTLGYLFSQGHLTRAICCRVTRDGSAFEDGLRHPFIVNHPKVGRVSIYDSKRQSGKTKETSVNWCLADGYDLEILDGTRGTVDGPRNELSRVSKKNIFLLFKKLCSFRYRRDLLRLSYGEAKKAARDYETAKNYFKKGLKDMGYGNWISKPQEEKNFYLCPV

binding: binds
B4: ESYT2 (protein, UniProt A0FGR8 1-921)
chain: MTANRDAALSSHRHPGCAQRPRTPTFASSSQRRSAFGFDDGNFPGLGERSHAPGSRLGARRRAKTARGLRGHRQRGAGAGLSRPGSARAPSPPRPGGPENPGGVLSVELPGLLAQLARSFALLLPVYALGYLGLSFSWVLLALALLAWCRRSRGLKALRLCRALALLEDEERVVRLGVRACDLPAWVHFPDTERAEWLNKTVKHMWPFICQFIEKLFRETIEPAVRGANTHLSTFSFTKVDVGQQPLRINGVKVYTENVDKRQIILDLQISFVGNCEIDLEIKRYFCRAGVKSIQIHGTMRVILEPLIGDMPLVGALSIFFLRKPLLEINWTGLTNLLDVPGLNGLSDTIILDIISNYLVLPNRITVPLVSEVQIAQLRFPVPKGVLRIHFIEAQDLQGKDTYLKGLVKGKSDPYGIIRVGNQIFQSRVIKENLSPKWNEVYEALVYEHPGQELEIELFDEDPDKDDFLGSLMIDLIEVEKERLLDEWFTLDEVPKGKLHLRLEWLTLMPNASNLDKVLTDIKADKDQANDGLSSALLILYLDSARNLPSGKKISSNPNPVVQMSVGHKAQESKIRYKTNEPVWEENFTFFIHNPKRQDLEVEVRDEQHQCSLGNLKVPLSQLLTSEDMTVSQRFQLSNSGPNSTIKMKIALRVLHLEKRERPPDHQHSAQVKRPSVSKEGRKTSIKSHMSGSPGPGGSNTAPSTPVIGGSDKPGMEEKAQPPEAGPQGLHDLGRSSSSLLASPGHISVKEPTPSIASDISLPIATQELRQRLRQLENGTTLGQSPLGQIQLTIRHSSQRNKLIVVVHACRNLIAFSEDGSDPYVRMYLLPDKRRSGRRKTHVSKKTLNPVFDQSFDFSVSLPEVQRRTLDVAVKNSGGFLSKDKGLLGKVLVALASEELAKGWTQWYDLTEDGTRPQAMT

No constants are given. Whether binding was seen depends on the method and setting. In cells and extracts the contact can be indirect. These calls come from enrichment with a bait or labelling near it, and not all partners need be listed. Where a sequence is shown, tags or fusion partners need not be part of it. Each block holds one binder with its values, some of them ahead of it.
